Data taken from paper PMC12048998.
Results are given in words; binding and its absence hold for the method and conditions named. Binding seen in cells or lysates may run through a third protein. Some entries that bind do so weakly or less than the wild type. For some assays here: Tags and fused reporters may be left off the sequences shown. Each block holds one binder with its values, some of them ahead of it.

Amino acid sequences for entries named in this document (tags omitted).
UniProt P54578: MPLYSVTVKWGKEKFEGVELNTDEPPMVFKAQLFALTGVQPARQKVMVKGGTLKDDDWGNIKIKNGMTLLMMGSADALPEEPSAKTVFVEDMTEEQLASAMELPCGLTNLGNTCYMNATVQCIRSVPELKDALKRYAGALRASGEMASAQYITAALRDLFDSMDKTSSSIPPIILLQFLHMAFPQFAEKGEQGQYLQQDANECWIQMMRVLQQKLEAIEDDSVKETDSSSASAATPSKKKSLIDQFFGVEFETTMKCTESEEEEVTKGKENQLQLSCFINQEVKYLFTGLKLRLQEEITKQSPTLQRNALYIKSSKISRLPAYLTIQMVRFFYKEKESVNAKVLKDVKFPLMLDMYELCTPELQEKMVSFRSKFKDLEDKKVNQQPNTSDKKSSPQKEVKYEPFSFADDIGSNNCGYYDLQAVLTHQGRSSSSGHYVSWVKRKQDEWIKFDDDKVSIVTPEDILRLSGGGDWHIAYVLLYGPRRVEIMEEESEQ

Assays:
[1] = molecular target: USP14 (human (endogenous in LoVo and SW48)) (UniProt P54578); test: co-IP; endogenous proteins in LoVo and SW48 lysates; lysis buffer 1% NP-40, 150 mM NaCl, 50 mM Tris-HCl pH 7.4, 1 mM EDTA; 2 µg antibody per 1 mg lysate overnight at 4 °C, Protein A/G beads
Myc-tagged USP14 (human) = Myc-tagged USP14 (human) (UniProt P54578); test: co-IP; HEK293T cells co-transfected with Myc-tagged USP14 and Flag-tagged BAG4 plasmids (whole or truncated); lysis buffer 1% NP-40, 150 mM NaCl, 50 mM Tris-HCl pH 7.4, 1 mM EDTA; Protein A/G beads

binding [1]: binds
B1: BAG4 (protein, UniProt O95429 1-457)
chain: MSALRRSGYGPSDGPSYGRYYGPGGGDVPVHPPPPLYPLRPEPPQPPISWRVRGGGPAETTWLGEGGGGDGYYPSGGAWPEPGRAGGSHQEQPPYPSYNSNYWNSTARSRAPYPSTYPVRPELQGQSLNSYTNGAYGPTYPPGPGANTASYSGAYYAPGYTQTSYSTEVPSTYRSSGNSPTPVSRWIYPQQDCQTEAPPLRGQVPGYPPSQNPGMTLPHYPYGDGNRSVPQSGPTVRPQEDAWASPGAYGMGGRYPWPSSAPSAPPGNLYMTESTSPWPSSGSPQSPPSPPVQQPKDSSYPYSQSDQSMNRHNFPCSVHQYESSGTVNNDDSDLLDSQVQYSAEPQLYGNATSDHPNNQDQSSSLPEECVPSDESTPPSIKKIIHVLEKVQYLEQEVEEFVGKKTDKAYWLLEEMLTKELLELDSVETGGQDSVRQARKEAVCKIQAILEKLEKKGL

binding (Myc-tagged USP14 (human)): binds
B2: Flag-tagged BAG4 (protein, UniProt O95429 1-457)
chain: B1 chain
